Measurements published in PubChem BioAssay AID540276 (National Center for Advancing Translational Sciences (NCATS), 2011).
Values joined by “and” are separate entries in the source; they are usually repeats but may differ in a detail not shown here. Equal values may be shown once. Screen size: about 300,000 compounds; about 5,400 (1.8%) were called active. The inconclusive results got no clear call from the source; some entries with a clear call stand among them for comparison. Calls come from the whole dose curve; tested in HEK293 cells. A potency beside an inconclusive call is a rough fit, not a confirmed value. More than one record can exist for a structure, and the calls need not agree.

Test: qHTS for inhibitors of binding or entry into cells for Marburg Virus
Settings: Marburg virus pseudotyped entry inhibition, cell reporter; series mostly up to 37.8 µM
Potency is the fitted concentration of half-maximal effect.

SMILES	Potency
COc1cc(/C=C2\SC(=Nc3cccnc3)NC2=O)cc(OC)c1OC	inconclusive: 1.26 µM [inhibitor, partial curve]
N/C(CCCN1CCCCC1)=N\O	inactive
COc1cccc(Cn2c(-c3nonc3NC(C)=O)nc3ccccc32)c1	inconclusive: 1 µM [inhibitor, full curve, poor fit]
CCn1cc([N+](=O)[O-])c(C(=O)N2N=C(c3ccc4ccccc4c3)CC2c2ccccc2O)n1 (stereo not drawn)	inconclusive: 35.5 µM [inhibitor, single point]
Cc1nnc(N/N=C/c2cc(C)n(-c3ccc(F)cc3)c2C)n1N	active: 14.6 µM
Cc1ccc2nc(Nc3nc(C)cc(-c4ccccc4)n3)[nH]c(=O)c2c1	inconclusive: 29.1 µM [inhibitor, single point]
CCOC(=O)c1ccccc1OC(=O)NNc1ccccc1	inconclusive: 3.55 µM [inhibitor, partial curve, poor fit]
CCOC(=O)c1ccc(NC(=O)COC)cc1	inactive
CCOc1ccc(Nc2nn(-c3ccc(OC(F)(F)F)cc3)nc2C(C)=O)cc1	inactive
O=C(Nc1nc(-c2ccccc2)cs1)c1cccs1	inactive
CCc1ccc(OCC(=O)Nc2ncn[nH]2)c(Br)c1	inconclusive: 3.55 µM [activator, partial curve, poor fit]
CC(=O)N1CCN(C(=O)c2ccc(-n3c(C)ccc3C)cc2)CC1	inconclusive: 20 µM [inhibitor, partial curve, poor fit]
CC(C(=O)N(C)C)N(C#N)c1nc(N(C)C)nc(N(C)C)n1 (stereo not drawn)	inconclusive: 0.562 µM [activator, full curve, poor fit]
Nc1nccc(-c2ccc(-n3cnc4ccccc43)cc2)n1	inconclusive: 25.1 µM [inhibitor, partial curve, poor fit]
CC1CCN(CCNC(=O)C2CCCN(c3ncnc4c3nc3n4CCCCC3)C2)CC1 (stereo not drawn)	inconclusive: 11.2 µM [inhibitor, partial curve, poor fit]
Cc1cccc(CC(=O)N2CCN=C2SCc2ccc([N+](=O)[O-])cc2)c1	inconclusive: 3.16 µM [inhibitor, single point]
c1ccc2c(Nc3nc(N4CCOCC4)c4ccccc4n3)cccc2c1	inconclusive: 10 µM [inhibitor, partial curve, poor fit]
CCCn1c(=O)n(C)c(=O)c2c(SCC(=O)NCC(c3ccccc3)N(C)C)nc(CC(C)C)nc21 (stereo not drawn)	inconclusive: 35.5 µM [inhibitor, single point]
O=[N+]([O-])c1cc(S(=O)(=O)Nc2ccccc2)ccc1Nc1ccccc1	inconclusive: 35.5 µM [inhibitor, single point]
CC(=O)N1CCc2cc(S(=O)(=O)NC3CCCc4ccccc43)ccc21 (stereo not drawn)	inconclusive: 7.94 µM [inhibitor, partial curve, poor fit]
COC(=O)c1ccc(NC(=O)c2ccc3nsnc3c2)cc1	inactive
CC(C(=O)Nc1ccc2c(c1)OCO2)N(C)CC(=O)Nc1ccc(Cl)cc1 (stereo not drawn)	inconclusive: 3.98 µM [inhibitor, single point]
COc1cc(C#N)c(NC(=O)CN2CCC(C(N)=O)CC2)cc1OC	inconclusive: 35.5 µM [activator, single point]

SMILES	Potency
COc1cc(OC)c(NC(=O)Nc2ccc(OC)c(OC)c2)cc1Cl	inconclusive: 0.0517 µM [inhibitor, full curve, poor fit]
CSCc1c(C(=O)NC2CCCc3ccccc32)oc2ccccc12 (stereo not drawn)	inconclusive: 12.6 µM [inhibitor, single point]
CC(=O)NCCCCCCNC(C)=O	inactive
O=C1Nc2ccc(Br)cc2/C1=C/C1CC=CCC1 (stereo not drawn)	inconclusive: 14.1 µM [inhibitor, partial curve, poor fit]
COc1cc(CNCCSc2nnnn2C)ccc1OCc1ccc(Cl)cc1Cl	inconclusive: 35.5 µM [inhibitor, single point]
C=CCOc1ccccc1CN1CCC(Oc2cc(C(=O)NC3CC3)ccc2OC)CC1	inconclusive: 20 µM [inhibitor, single point]
COC(=O)CSc1ccc(S(=O)(=O)N2CCOCC2)cc1[N+](=O)[O-]	inconclusive: 0.447 µM [activator, full curve, poor fit]
COC[C@H]1OC(=O)c2coc3c2[C@@]1(C)C1=C(C3=O)C2CCC(=O)[C@@]2(C)C[C@H]1OC(C)=O (stereo partly drawn)	inactive and active: 44.7 nM
Nc1ccc2nc(N)sc2c1	inactive
O=[N+]([O-])c1ccc(Sc2ccccc2Cl)nc1	inconclusive: 6.51 µM [activator, single point]
O=[N+]([O-])c1ccc(N/N=C/c2ccccc2)c(F)c1	inconclusive: 9.2 µM [activator, partial curve]
Cc1c(Cl)cccc1NC(=S)NCc1ccc(F)cc1	inconclusive: 35.5 µM [inhibitor, partial curve, poor fit]
CCOC(=O)c1sc(=S)n(C)c1NC(=O)c1ccc(C(C)(C)C)cc1	active: 14.1 µM
Cc1cccc(C)c1NC(=O)c1sc(-n2nc(C)c(Cc3ccc4c(c3)OCO4)c2C)nc1C	inactive
CCOC(=O)C(Oc1ccc2c(-c3ccccc3)cc(=O)oc2c1)c1ccccc1 (stereo not drawn)	inconclusive: 17.8 µM [inhibitor, single point]
CSc1ccccc1OCc1cc(C(=O)N2CCSCC2)no1	inconclusive: 35.5 µM [inhibitor, single point]
CCOC(=O)N1CCN(C(=O)c2ccc(N(Cc3ccccc3Cl)S(C)(=O)=O)cc2)CC1	inactive
CCOc1ccc(-c2nc3n(c(=O)c2C#N)CCCS3)cc1	inconclusive: 35.5 µM [inhibitor, single point]
CC(Oc1ccc(F)cc1)C(=O)Nc1cc(S(=O)(=O)N2CCCCC2)ccc1N1CCOCC1 (stereo not drawn)	inconclusive: 17.8 µM [inhibitor, single point]
O=C1/C(=C/c2ccc([N+](=O)[O-])cc2)N2CCC1CC2	inconclusive: 0.891 µM [activator, partial curve, poor fit]
CCOc1cc(/C=N/Nc2cccc(C(=O)O)c2)ccc1OCC(=O)N1CCCCC1	inconclusive: 4.47 µM [activator, single point]
On1onc2c3cc(-c4ccccc4)nc3ccc21	inconclusive: 2.82 µM [inhibitor, full curve, poor fit]
CC(C)(C)c1cc(S(=O)(=O)CCc2ccccn2)cc(C(C)(C)C)c1F	inconclusive: 29.1 µM [inhibitor, single point]

Quoted from the listing:
Potency, CCOc1ccc(-c2nc3n(c(=O)c2C#N)CCCS3)cc1 is entered as inconclusive: 35.5 µM [inhibitor, single point]
Potency, CSCc1c(C(=O)NC2CCCc3ccccc32)oc2ccccc12 (stereo not drawn) is entered as inconclusive: 12.6 µM [inhibitor, single point]

Remaining list, next part:

SMILES	Potency
COc1ccc(CCNC(=O)c2ccc(CN3CCOCC3)cc2)cc1	inconclusive: 18.3 µM [activator, partial curve, poor fit]
Cc1cc(C(=O)COC(=O)C2=COCCO2)c(C)n1-c1ccccc1	active: 5.62 µM
C(=N\Nc1nc2ccccc2[nH]1)/c1ccc2ncccc2c1	inconclusive: 0.891 µM [inhibitor, full curve, poor fit]
Cc1ccc(C(=O)Nc2nc3ccc(S(C)(=O)=O)cc3s2)cc1C	inconclusive: 3.16 µM [inhibitor, partial curve, poor fit]
O=C(CCN1CCC(c2ccccc2)C1)c1ccccc1 (stereo not drawn)	inactive
CCCc1nc2ccccc2n1CCOC	inconclusive: 0.126 µM [inhibitor, full curve, poor fit]
Cc1ccc(C(=O)NC(=S)Nc2ccc(Oc3ccc(Cl)cc3)cc2)cc1	inactive
CCOC(=O)CNC(=O)C1(/C=C/c2ccccc2)CC(=O)N1c1ccc(OC)cc1 (stereo not drawn)	inconclusive: 5.62 µM [inhibitor, partial curve, poor fit]
Cc1cc(C)n(/N=C/c2ccc(C(C)C)cc2)c(=O)c1C#N	inconclusive: 1.41 µM [activator, partial curve, poor fit]
CN(CCc1cn[nH]c1)Cc1nc(C(c2ccccc2)c2ccccc2)no1	inactive
CC(=O)Nc1ccc2nc(-c3cccnc3)[nH]c2c1	inconclusive: 35.5 µM [activator, single point]
Cc1cccnc1NC(=O)COc1ccc2c(c1)CCC2	inconclusive: 12.6 µM [activator, single point]
Oc1ccc(N2CCN(c3nc(-c4cccs4)nc4ccccc34)CC2)cc1	inconclusive: 1.26 µM [inhibitor, partial curve, poor fit]
CCC(=O)Nc1nnc(-c2cccs2)s1	inconclusive: 35.5 µM [activator, single point]
Cn1c(=O)c2c(nc(NCCc3ccccc3)n2CC(=O)NCCc2ccccc2)n(C)c1=O	inactive
CC(C)(C)c1ccc(/C=C2\Oc3cc(O)ccc3C2=O)cc1	inconclusive: 35.5 µM [inhibitor, single point]
COc1ccc(C2C(C(=O)O)c3ccccc3C(=O)N2Cc2ccco2)cc1 (stereo not drawn)	inactive
CCSc1nc(N2CCOCC2)c2c(c1C#N)CCCC2	inactive
CN1C(=O)/C(=C/c2cc3c(cc2Br)OCO3)NC1=S	inconclusive: 22.4 µM [inhibitor, single point]
NS(=O)(=O)c1cnccc1Nc1ccc(Cl)cc1	inactive
Cc1n[nH]c(=S)n1/N=C/c1ccccc1	inconclusive: 3.98 µM [activator, single point]
Cc1ccc(NC(=O)CSc2nnc(-c3cnccn3)n2Cc2ccco2)cc1	inconclusive: 11.6 µM [activator, partial curve, poor fit]

Random excerpt: 5 compounds from above.
SMILES	Potency
Nc1nccc(-c2ccc(-n3cnc4ccccc43)cc2)n1	inconclusive: 25.1 µM [inhibitor, partial curve, poor fit]
O=C(CCN1CCC(c2ccccc2)C1)c1ccccc1 (stereo not drawn)	inactive
Cc1ccc(C(=O)NC(=S)Nc2ccc(Oc3ccc(Cl)cc3)cc2)cc1	inactive
CCOC(=O)c1ccc(NC(=O)COC)cc1	inactive
CC(C)(C)c1ccc(/C=C2\Oc3cc(O)ccc3C2=O)cc1	inconclusive: 35.5 µM [inhibitor, single point]
